Laboratory results taken from article PMC10667816, “A Cell‐Penetrant Peptide Disrupting the Transcription Factor CP2c Complexes Induces Cancer‐Specific Synthetic Lethality” (Advanced Science, 2023).
Where a chain is given by its changes, count along the chain named. The exact form of at least one protein or probe is not confirmed. For some assays here: A weaker result is weaker than the reference pair of the same experiment. For some assays here: Where a protein sequence is shown, tags need not be part of it. For some assays here: Where cells or extracts were used, other partners may take part. For some assays here: At least one verdict rests on a figure or table, not on a statement of the authors.

By UniProt entry, the sequences of proteins in these tests, tags left out. Residues count along the entry.
UniProt O88907, 2-651: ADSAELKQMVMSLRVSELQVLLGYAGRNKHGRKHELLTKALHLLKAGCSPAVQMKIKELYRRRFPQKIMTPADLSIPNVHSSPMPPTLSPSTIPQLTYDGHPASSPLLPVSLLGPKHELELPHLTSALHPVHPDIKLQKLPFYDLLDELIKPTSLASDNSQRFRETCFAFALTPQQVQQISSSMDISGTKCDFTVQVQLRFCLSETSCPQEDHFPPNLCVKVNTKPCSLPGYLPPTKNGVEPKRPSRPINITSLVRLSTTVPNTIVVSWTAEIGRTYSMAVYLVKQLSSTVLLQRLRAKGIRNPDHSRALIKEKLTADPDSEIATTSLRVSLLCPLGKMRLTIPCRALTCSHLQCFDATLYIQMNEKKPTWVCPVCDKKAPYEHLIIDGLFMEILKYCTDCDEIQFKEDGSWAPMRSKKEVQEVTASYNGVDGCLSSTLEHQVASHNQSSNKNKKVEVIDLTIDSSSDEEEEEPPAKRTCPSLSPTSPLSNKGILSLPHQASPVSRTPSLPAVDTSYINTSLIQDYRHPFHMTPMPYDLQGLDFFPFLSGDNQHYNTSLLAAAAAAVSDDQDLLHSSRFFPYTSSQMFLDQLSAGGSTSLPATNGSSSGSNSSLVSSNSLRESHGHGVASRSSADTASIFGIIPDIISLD

Experiments:
CP2c (C4 or CBP complex) [1] = biological target: T1, CP2c (C4 or CBP complex) (UniProt Q9ERA0); test: DNA-IP; DNA pull-down; details: [C4], DNA-IP: 4% glycerol, 10 mM Tris-HCl pH 7.4, 1 mM DTT, 1 mM EDTA, 0.1% NP-40, room temperature 15 min (then 0-3 uM peptide 15 min), wash 50 mM Tris-HCl pH 7.4, protein in a lysate after overexpression
T1 sequence (looked up, limits assumed): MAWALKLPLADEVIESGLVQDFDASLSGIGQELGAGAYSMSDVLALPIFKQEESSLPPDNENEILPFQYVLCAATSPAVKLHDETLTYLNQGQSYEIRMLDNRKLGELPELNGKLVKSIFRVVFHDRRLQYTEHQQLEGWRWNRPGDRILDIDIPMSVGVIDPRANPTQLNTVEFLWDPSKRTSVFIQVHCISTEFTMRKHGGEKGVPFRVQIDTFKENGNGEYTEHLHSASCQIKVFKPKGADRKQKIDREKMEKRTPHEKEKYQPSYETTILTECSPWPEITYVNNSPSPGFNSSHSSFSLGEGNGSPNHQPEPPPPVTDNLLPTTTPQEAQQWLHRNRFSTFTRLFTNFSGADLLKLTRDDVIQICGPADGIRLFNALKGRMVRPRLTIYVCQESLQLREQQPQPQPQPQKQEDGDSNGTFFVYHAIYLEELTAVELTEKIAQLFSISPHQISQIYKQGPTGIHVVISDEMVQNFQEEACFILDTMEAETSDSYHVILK

[2] = system: CP2c (C4 or CBP complex) + CP2b + PIAS1; test: DNA-IP; DNA pull-down; details: DNA-IP: 4% glycerol, 10 mM Tris-HCl pH 7.4, 1 mM DTT, 1 mM EDTA, 0.1% NP-40, room temperature 15 min (then 0-3 uM peptide 15 min), wash 50 mM Tris-HCl pH 7.4, protein in a lysate after overexpression
PIAS1 (nuclear extract) = PIAS1 (nuclear extract) (UniProt O88907); test: DNA-IP; details: DNA-IP: 4% glycerol, 10 mM Tris-HCl pH 7.4, 1 mM DTT, 1 mM EDTA, 0.1% NP-40, room temperature 15 min (then 0-3 uM peptide 15 min), wash 50 mM Tris-HCl pH 7.4, protein in an extract
GST-CP2c R341A (mouse) = biological target: T2, GST-CP2c R341A (mouse) (UniProt Q9ERA0); test: DNA-IP; details: DNA-IP: 4% glycerol, 10 mM Tris-HCl pH 7.4, 1 mM DTT, 1 mM EDTA, 0.1% NP-40, room temperature 15 min (then 0-3 uM peptide 15 min); wash 50 mM Tris-HCl pH 7.4; recombinant protein; protein details: N-GST
T2 sequence (looked up, limits assumed): T1 sequence (looked up, limits assumed) with R341A

GST-CP2c R347A (mouse) = biological target: T3, GST-CP2c R347A (mouse) (UniProt Q9ERA0); test: DNA-IP; details: DNA-IP: 4% glycerol, 10 mM Tris-HCl pH 7.4, 1 mM DTT, 1 mM EDTA, 0.1% NP-40, room temperature 15 min (then 0-3 uM peptide 15 min); wash 50 mM Tris-HCl pH 7.4; recombinant protein; protein details: N-GST
T3 sequence (looked up, limits assumed): T1 sequence (looked up, limits assumed) with R347A

CP2c (C4 or CBP complex) [3] = biological target: T1, CP2c (C4 or CBP complex); test: DNA-IP; details: [C4], Pep #5; DNA-IP: 4% glycerol, 10 mM Tris-HCl pH 7.4, 1 mM DTT, 1 mM EDTA, 0.1% NP-40, room temperature 15 min (then 0-3 uM peptide 15 min); wash 50 mM Tris-HCl pH 7.4; protein in a lysate after overexpression
GST-CP2c E332A (mouse) = biological target: T4, GST-CP2c E332A (mouse) (UniProt Q9ERA0); test: DNA-IP; details: DNA-IP: 4% glycerol, 10 mM Tris-HCl pH 7.4, 1 mM DTT, 1 mM EDTA, 0.1% NP-40, room temperature 15 min (then 0-3 uM peptide 15 min); wash 50 mM Tris-HCl pH 7.4; recombinant protein; protein details: N-GST
T4 sequence (looked up, limits assumed): T1 sequence (looked up, limits assumed) with E332A

CP2c (nuclear extract) = biological target: T5, CP2c (nuclear extract) (UniProt Q9ERA0); test: DNA-IP; details: DNA-IP: 4% glycerol, 10 mM Tris-HCl pH 7.4, 1 mM DTT, 1 mM EDTA, 0.1% NP-40, room temperature 15 min (then 0-3 uM peptide 15 min), wash 50 mM Tris-HCl pH 7.4, protein in an extract
T5 sequence (looked up, limits assumed): T1 sequence (looked up, limits assumed)

CP2b (nuclear extract) = biological target: T6, CP2b (nuclear extract) (UniProt Q811S7); test: DNA-IP; details: DNA-IP: 4% glycerol, 10 mM Tris-HCl pH 7.4, 1 mM DTT, 1 mM EDTA, 0.1% NP-40, room temperature 15 min (then 0-3 uM peptide 15 min), wash 50 mM Tris-HCl pH 7.4, protein in an extract
T6 sequence (looked up, limits assumed): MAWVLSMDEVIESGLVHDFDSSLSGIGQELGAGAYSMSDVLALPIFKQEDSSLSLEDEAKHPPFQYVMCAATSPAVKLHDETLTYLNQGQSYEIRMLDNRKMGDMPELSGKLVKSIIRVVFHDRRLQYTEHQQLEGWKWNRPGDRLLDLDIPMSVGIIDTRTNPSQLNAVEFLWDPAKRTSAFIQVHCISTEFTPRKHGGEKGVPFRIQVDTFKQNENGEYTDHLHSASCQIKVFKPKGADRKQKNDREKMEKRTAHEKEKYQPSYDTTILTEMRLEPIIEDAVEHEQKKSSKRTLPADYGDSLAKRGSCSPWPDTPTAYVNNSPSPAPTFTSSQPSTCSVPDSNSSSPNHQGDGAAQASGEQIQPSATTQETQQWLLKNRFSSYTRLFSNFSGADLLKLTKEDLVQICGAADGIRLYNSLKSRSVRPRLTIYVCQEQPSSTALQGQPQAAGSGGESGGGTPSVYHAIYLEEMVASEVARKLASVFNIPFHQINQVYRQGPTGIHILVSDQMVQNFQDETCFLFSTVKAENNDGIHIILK

[4] = system: CP2c (C4 or CBP complex) + CP2b + PIAS1; test: DNA-IP; details: Pep #5; DNA-IP: 4% glycerol, 10 mM Tris-HCl pH 7.4, 1 mM DTT, 1 mM EDTA, 0.1% NP-40, room temperature 15 min (then 0-3 uM peptide 15 min); wash 50 mM Tris-HCl pH 7.4; protein in a lysate after overexpression
GST-CP2c R339A (mouse) = biological target: T7, GST-CP2c R339A (mouse) (UniProt Q9ERA0); test: DNA-IP; details: DNA-IP: 4% glycerol, 10 mM Tris-HCl pH 7.4, 1 mM DTT, 1 mM EDTA, 0.1% NP-40, room temperature 15 min (then 0-3 uM peptide 15 min); wash 50 mM Tris-HCl pH 7.4; recombinant protein; protein details: N-GST
T7 sequence (looked up, limits assumed): T1 sequence (looked up, limits assumed) with R339A

[5] = biological target: T8, GST-CP2c wildtype (mouse (mCP2c primers)) (UniProt Q9ERA0); test: DNA-IP; details: DNA-IP: 4% glycerol, 10 mM Tris-HCl pH 7.4, 1 mM DTT, 1 mM EDTA, 0.1% NP-40, room temperature 15 min (then 0-3 uM peptide 15 min); wash 50 mM Tris-HCl pH 7.4; recombinant protein; protein details: N-GST
T8 sequence (looked up, limits assumed): T1 sequence (looked up, limits assumed)

GATCCCAAGTTTTACTCGGTAGAGCAAGCACAAACCAGG / GATCCCTGGTTTGTGCTTGCTCTACCGAGTAAAACTTGG [wildtype Hba-a2 promoter probe]
binding result (CP2c (C4 or CBP complex) [1]; Pep #5-2): binds more weakly
binding result (CP2c (C4 or CBP complex) [1]; no peptide): binds
binding result ([2]; Pep #5-2): binds more weakly
binding result ([2]; no peptide): binds
binding result (PIAS1 (nuclear extract); Pep #5-2): binds more weakly
binding result (PIAS1 (nuclear extract); no peptide): binds
binding result (GST-CP2c R341A (mouse)): binds more weakly
binding result (GST-CP2c R347A (mouse)): binds more weakly
binding result (CP2c (C4 or CBP complex) [3]): binds more weakly
binding result (GST-CP2c E332A (mouse)): binds more weakly
binding result (CP2c (nuclear extract); Pep #5-2): binds more weakly
binding result (CP2c (nuclear extract); no peptide): binds
binding result (CP2b (nuclear extract); Pep #5-2): binds more weakly
binding result (CP2b (nuclear extract); no peptide): binds
binding result [4]: binds more weakly
binding result (GST-CP2c R339A (mouse)): binds more weakly
binding result [5]: binds
